In patent US4778789A, “Piperazinecarboxamides having a phenoxyalkyl or thiophenoxyalkyl side chain” (priority 1985, dated 1988):

Columns and labels:
[1] = system: isolation induced aggressive behaviour (male NMRI mice); test: Isolation induced aggressive behaviour test; assay type: in vivo, mouse (male NMRI mice); settings: Mus musculus, sc, 0.5 h, read-out: ED50 (dose inhibiting aggressive behaviour among 50 percent of the pairs)
Text: This type of aggression is interesting because it is known that this kind of emotional behaviour might be located in limbic structures in the brain (MacLean, P. D., Psychosom. Med. 11, 338 (1949)).
Every week male NMRI mice, weighing 20-22 g, were isolated in Makrolon cages for three weeks with diet and water ad libitum. A piece of cardboard was placed between the cages to prevent visual contact.
To test aggressiveness the mice were paired in a neutral area, a beaker (14 cm high and diameter 14 cm). A pair is considered aggressive if both the animals show clear signs of fighting within 5 minutes. This fighting is characterized by biting and vocalization. A soon as fighting is seen, the mice are separated and brought to their home cage (every second mouse is marked). […] Animals showing no aggression are discarded.
The test substance is administered s.c. (0.2-0.4 ml/20 g). The mice are paired 0.5 hour after the injection for trials of 5 minutes' duration.
The ED50 -value (mg/kg) reported is the dose inhibiting aggressive behaviour among 50 percent of the pairs 0.5 hour after drug administration.

[2] = system: isolation induced aggressive behaviour (male NMRI mice); settings: background statement; result in words; cited from earlier work

## CN1C(=O)CN=C(c2ccccc2)c2cc(Cl)ccc21 [Diazepam]
[1]
  ED50: 6.7 mg/kg
[2]
  inhibition of isolation induced aggressive behaviour, clinically used drugs: active
